# Results taken from the supplement of paper PMC11438910.
# This is one part of the list. Most of these values are background signal.
# B1: 4-173.1 (protein)
# chain 1: QLQLQESGPGLVKPSETLSLTCAVSGASISSNYWSWIRQAPGKGLEWIGRISGSSGSTDYNPSLKSRVTISTDTSKNQFSLKLNSVTAADTAVYYCARVSYWGHYGDYWGQGVLVTVSS
# chain 2: QPVLTQPSSHSASPGAPARLTCTLSSGFSVGDFWIRWYQQKPGSPPRYLLYYHSDSDKHQGSGVPSRFSGSNDASANAGILHISGLQPEDEADYYCCTWHGNSKTQIFGAGTRLTVL
# How the values were obtained:
# Experiment in all cases: fluorescence intensity of antibody binding to polysaccharide-coupled beads; higher = stronger binding
# [1] = target: pneumococcal polysaccharide C-Poly-1
# Procedure: (§1)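 Recombinant rhesus-murine chimeric IgG1 antibodies were tested against antigen-coupled MagPlex beads in a 96-plex Luminex direct immunoassay (dLIA). The beads carried pneumococcal capsular polysaccharides of 93 serotypes plus C-polysaccharides. Antibody was added at 0.1–12,500 ng/mL for 1 h, then PE anti-mouse IgG, and net MFI was read on a Bio-Plex 3D. Only the rhesus variable regions are printed; constant regions are murine IgG1/kappa/lambda, and the signal peptide is MGWSCIILFLVATATGVHS.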
# [2] = target: pneumococcal polysaccharide C-Poly-2
# Procedure: as §1
# [3] = target: pneumococcal polysaccharide Pn1
# Procedure: as §1
# [4] = target: pneumococcal polysaccharide Pn10A
# Procedure: as §1
# [5] = target: pneumococcal polysaccharide Pn10B
# Procedure: as §1
# [6] = target: pneumococcal polysaccharide Pn10C
# Procedure: as §1
# [7] = target: pneumococcal polysaccharide Pn10F
# Procedure: as §1
# [8] = target: pneumococcal polysaccharide Pn11A
# Procedure: as §1
# [9] = target: pneumococcal polysaccharide Pn11B
# Procedure: as §1
# [10] = target: pneumococcal polysaccharide Pn11C
# Procedure: as §1
# [11] = target: pneumococcal polysaccharide Pn11D
# Procedure: as §1
# [12] = target: pneumococcal polysaccharide Pn11F
# Procedure: as §1
# [13] = target: pneumococcal polysaccharide Pn12A
# Procedure: as §1
# [14] = target: pneumococcal polysaccharide Pn12B
# Procedure: as §1
# [15] = target: pneumococcal polysaccharide Pn12F
# Procedure: as §1
# [16] = target: pneumococcal polysaccharide Pn13
# Procedure: as §1
# [17] = target: pneumococcal polysaccharide Pn14
# Procedure: as §1
# [18] = target: pneumococcal polysaccharide Pn15A
# Procedure: as §1
# [19] = target: pneumococcal polysaccharide Pn15B
# Procedure: as §1
# [20] = target: pneumococcal polysaccharide Pn15C
# Procedure: as §1
# [21] = target: pneumococcal polysaccharide Pn15F
# Procedure: as §1
# [22] = target: pneumococcal polysaccharide Pn16A
# Procedure: as §1
# [23] = target: pneumococcal polysaccharide Pn16F
# Procedure: as §1
# [24] = antibody concentration 0.1 ng/mL
# [25] = antibody concentration 0.534724 ng/mL
# [26] = antibody concentration 2.8593 ng/mL
# [27] = antibody concentration 15.2894 ng/mL
# [28] = antibody concentration 81.7561 ng/mL
# [29] = antibody concentration 437.17 ng/mL
# [30] = antibody concentration 2337.65 ng/mL
# [31] = antibody concentration 12500 ng/mL
binder,measurement,setting,value
B1,fluorescence intensity,[1]; [24],25.8 MFI
same,fluorescence intensity,[1]; [25],28 MFI
same,fluorescence intensity,[1]; [26],28 MFI
same,fluorescence intensity,[1]; [27],28 MFI
same,fluorescence intensity,[1]; [28],26.5 MFI
same,fluorescence intensity,[1]; [29],30 MFI
same,fluorescence intensity,[1]; [30],32.5 MFI
same,fluorescence intensity,[1]; [31],68.5 MFI
same,fluorescence intensity,[2]; [24],21.5 MFI
same,fluorescence intensity,[2]; [25],21 MFI
same,fluorescence intensity,[2]; [26],22.5 MFI
same,fluorescence intensity,[2]; [27],21 MFI
same,fluorescence intensity,[2]; [28],22 MFI
same,fluorescence intensity,[2]; [29],24 MFI
same,fluorescence intensity,[2]; [30],28.5 MFI
same,fluorescence intensity,[2]; [31],58.5 MFI
same,fluorescence intensity,[3]; [24],15.5 MFI
same,fluorescence intensity,[3]; [25],14.5 MFI
same,fluorescence intensity,[3]; [26],13.5 MFI
same,fluorescence intensity,[3]; [27],15 MFI
same,fluorescence intensity,[3]; [28],15 MFI
same,fluorescence intensity,[3]; [29],15.5 MFI
same,fluorescence intensity,[3]; [30],18 MFI
same,fluorescence intensity,[3]; [31],23.8 MFI
same,fluorescence intensity,[4]; [24],26.5 MFI
same,fluorescence intensity,[4]; [25],27.2 MFI
same,fluorescence intensity,[4]; [26],26 MFI
same,fluorescence intensity,[4]; [27],26.5 MFI
same,fluorescence intensity,[4]; [28],27 MFI
same,fluorescence intensity,[4]; [29],27 MFI
same,fluorescence intensity,[4]; [30],26.5 MFI
same,fluorescence intensity,[4]; [31],32 MFI
same,fluorescence intensity,[5]; [24],26 MFI
same,fluorescence intensity,[5]; [25],23.5 MFI
same,fluorescence intensity,[5]; [26],21.5 MFI
same,fluorescence intensity,[5]; [27],25 MFI
same,fluorescence intensity,[5]; [28],23.8 MFI
same,fluorescence intensity,[5]; [29],23.2 MFI
same,fluorescence intensity,[5]; [30],25 MFI
same,fluorescence intensity,[5]; [31],28.5 MFI
same,fluorescence intensity,[6]; [24],16.5 MFI
same,fluorescence intensity,[6]; [25],18.5 MFI
same,fluorescence intensity,[6]; [26],19 MFI
same,fluorescence intensity,[6]; [27],16.8 MFI
same,fluorescence intensity,[6]; [28],17 MFI
same,fluorescence intensity,[6]; [29],17 MFI
same,fluorescence intensity,[6]; [30],18.5 MFI
same,fluorescence intensity,[6]; [31],19.8 MFI
same,fluorescence intensity,[7]; [24],20.5 MFI
same,fluorescence intensity,[7]; [25],20 MFI
same,fluorescence intensity,[7]; [26],20.5 MFI
same,fluorescence intensity,[7]; [27],19.8 MFI
same,fluorescence intensity,[7]; [28],20 MFI
same,fluorescence intensity,[7]; [29],21.5 MFI
same,fluorescence intensity,[7]; [30],19.5 MFI
same,fluorescence intensity,[7]; [31],24 MFI
same,fluorescence intensity,[8]; [24],29 MFI
same,fluorescence intensity,[8]; [25],29.5 MFI
same,fluorescence intensity,[8]; [26],29.2 MFI
same,fluorescence intensity,[8]; [27],29 MFI
same,fluorescence intensity,[8]; [28],27.2 MFI
same,fluorescence intensity,[8]; [29],32 MFI
same,fluorescence intensity,[8]; [30],34.5 MFI
same,fluorescence intensity,[8]; [31],42.8 MFI
same,fluorescence intensity,[9]; [24],24 MFI
same,fluorescence intensity,[9]; [25],28 MFI
same,fluorescence intensity,[9]; [26],24 MFI
same,fluorescence intensity,[9]; [27],28.2 MFI
same,fluorescence intensity,[9]; [28],26.5 MFI
same,fluorescence intensity,[9]; [29],28 MFI
same,fluorescence intensity,[9]; [30],27.5 MFI
same,fluorescence intensity,[9]; [31],36 MFI
same,fluorescence intensity,[10]; [24],23 MFI
same,fluorescence intensity,[10]; [25],22.5 MFI
same,fluorescence intensity,[10]; [26],24.8 MFI
same,fluorescence intensity,[10]; [27],23.5 MFI
same,fluorescence intensity,[10]; [28],22 MFI
same,fluorescence intensity,[10]; [29],23.5 MFI
same,fluorescence intensity,[10]; [30],26.5 MFI
same,fluorescence intensity,[10]; [31],59.5 MFI
same,fluorescence intensity,[11]; [24],24.5 MFI
same,fluorescence intensity,[11]; [25],25 MFI
same,fluorescence intensity,[11]; [26],25.2 MFI
same,fluorescence intensity,[11]; [27],25 MFI
same,fluorescence intensity,[11]; [28],23.5 MFI
same,fluorescence intensity,[11]; [29],24 MFI
same,fluorescence intensity,[11]; [30],25 MFI
same,fluorescence intensity,[11]; [31],39.5 MFI
same,fluorescence intensity,[12]; [24],14.8 MFI
same,fluorescence intensity,[12]; [25],14.5 MFI
same,fluorescence intensity,[12]; [26],16 MFI
same,fluorescence intensity,[12]; [27],14.5 MFI
same,fluorescence intensity,[12]; [28],15 MFI
same,fluorescence intensity,[12]; [29],13.2 MFI
same,fluorescence intensity,[12]; [30],15.2 MFI
same,fluorescence intensity,[12]; [31],21.5 MFI
same,fluorescence intensity,[13]; [24],18 MFI
same,fluorescence intensity,[13]; [25],14.2 MFI
same,fluorescence intensity,[13]; [26],17.5 MFI
same,fluorescence intensity,[13]; [27],16.5 MFI
same,fluorescence intensity,[13]; [28],16 MFI
same,fluorescence intensity,[13]; [29],17.5 MFI
same,fluorescence intensity,[13]; [30],19 MFI
same,fluorescence intensity,[13]; [31],25.5 MFI
same,fluorescence intensity,[14]; [24],17.2 MFI
same,fluorescence intensity,[14]; [25],15 MFI
same,fluorescence intensity,[14]; [26],16.5 MFI
same,fluorescence intensity,[14]; [27],17.5 MFI
same,fluorescence intensity,[14]; [28],16 MFI
same,fluorescence intensity,[14]; [29],17 MFI
same,fluorescence intensity,[14]; [30],18.5 MFI
same,fluorescence intensity,[14]; [31],25 MFI
same,fluorescence intensity,[15]; [24],19.8 MFI
same,fluorescence intensity,[15]; [25],19.2 MFI
same,fluorescence intensity,[15]; [26],20.5 MFI
same,fluorescence intensity,[15]; [27],19 MFI
same,fluorescence intensity,[15]; [28],19.5 MFI
same,fluorescence intensity,[15]; [29],18.2 MFI
same,fluorescence intensity,[15]; [30],22.2 MFI
same,fluorescence intensity,[15]; [31],28.8 MFI
same,fluorescence intensity,[16]; [24],19 MFI
same,fluorescence intensity,[16]; [25],19.5 MFI
same,fluorescence intensity,[16]; [26],21 MFI
same,fluorescence intensity,[16]; [27],19.5 MFI
same,fluorescence intensity,[16]; [28],19 MFI
same,fluorescence intensity,[16]; [29],20 MFI
same,fluorescence intensity,[16]; [30],20.8 MFI
same,fluorescence intensity,[16]; [31],23.5 MFI
same,fluorescence intensity,[17]; [24],14.5 MFI
same,fluorescence intensity,[17]; [25],15.5 MFI
same,fluorescence intensity,[17]; [26],15.5 MFI
same,fluorescence intensity,[17]; [27],15.5 MFI
same,fluorescence intensity,[17]; [28],16 MFI
same,fluorescence intensity,[17]; [29],17 MFI
same,fluorescence intensity,[17]; [30],22.2 MFI
same,fluorescence intensity,[17]; [31],47.8 MFI
same,fluorescence intensity,[18]; [24],13.5 MFI
same,fluorescence intensity,[18]; [25],14 MFI
same,fluorescence intensity,[18]; [26],13.5 MFI
same,fluorescence intensity,[18]; [27],13.5 MFI
same,fluorescence intensity,[18]; [28],12.5 MFI
same,fluorescence intensity,[18]; [29],12.5 MFI
same,fluorescence intensity,[18]; [30],14.5 MFI
same,fluorescence intensity,[18]; [31],15 MFI
same,fluorescence intensity,[19]; [24],19 MFI
same,fluorescence intensity,[19]; [25],19 MFI
same,fluorescence intensity,[19]; [26],17.5 MFI
same,fluorescence intensity,[19]; [27],17.8 MFI
same,fluorescence intensity,[19]; [28],20 MFI
same,fluorescence intensity,[19]; [29],19.5 MFI
same,fluorescence intensity,[19]; [30],23.5 MFI
same,fluorescence intensity,[19]; [31],27 MFI
same,fluorescence intensity,[20]; [24],17.8 MFI
same,fluorescence intensity,[20]; [25],17.5 MFI
same,fluorescence intensity,[20]; [26],16.5 MFI
same,fluorescence intensity,[20]; [27],17 MFI
same,fluorescence intensity,[20]; [28],18.2 MFI
same,fluorescence intensity,[20]; [29],19.2 MFI
same,fluorescence intensity,[20]; [30],19.5 MFI
same,fluorescence intensity,[20]; [31],24.5 MFI
same,fluorescence intensity,[21]; [24],18.5 MFI
same,fluorescence intensity,[21]; [25],18.5 MFI
same,fluorescence intensity,[21]; [26],18.8 MFI
same,fluorescence intensity,[21]; [27],17.5 MFI
same,fluorescence intensity,[21]; [28],17.8 MFI
same,fluorescence intensity,[21]; [29],18.5 MFI
same,fluorescence intensity,[21]; [30],19.2 MFI
same,fluorescence intensity,[21]; [31],24 MFI
same,fluorescence intensity,[22]; [24],16 MFI
same,fluorescence intensity,[22]; [25],14 MFI
same,fluorescence intensity,[22]; [26],15 MFI
same,fluorescence intensity,[22]; [27],16 MFI
same,fluorescence intensity,[22]; [28],14 MFI
same,fluorescence intensity,[22]; [29],16.8 MFI
same,fluorescence intensity,[22]; [30],15 MFI
same,fluorescence intensity,[22]; [31],21 MFI
same,fluorescence intensity,[23]; [24],25.5 MFI
same,fluorescence intensity,[23]; [25],26 MFI
same,fluorescence intensity,[23]; [26],25 MFI
same,fluorescence intensity,[23]; [27],25.8 MFI

# Retrieved one by one from the list above, 7 records:
binder,measurement,setting,value
B1,fluorescence intensity,[16]; [25],19.5 MFI
same,fluorescence intensity,[11]; [29],24 MFI
same,fluorescence intensity,[13]; [27],16.5 MFI
same,fluorescence intensity,[8]; [30],34.5 MFI
same,fluorescence intensity,[4]; [29],27 MFI
same,fluorescence intensity,[12]; [25],14.5 MFI
same,fluorescence intensity,[1]; [28],26.5 MFI

# 3 entries from above, as tab-separated lines.
binder	measurement	setting	value
B1	fluorescence intensity	[19]; [27]	17.8 MFI
same	fluorescence intensity	[19]; [28]	20 MFI
same	fluorescence intensity	[19]; [29]	19.5 MFI
